In article PMC9654039, “FUS Microphase Separation: Regulation by Nucleic Acid Polymers and DNA Repair Proteins”:
Where a protein sequence is shown, tags need not be part of it.

Biological target: T1, FUS∆LCD (UniProt P35637)
T1 sequence (looked up): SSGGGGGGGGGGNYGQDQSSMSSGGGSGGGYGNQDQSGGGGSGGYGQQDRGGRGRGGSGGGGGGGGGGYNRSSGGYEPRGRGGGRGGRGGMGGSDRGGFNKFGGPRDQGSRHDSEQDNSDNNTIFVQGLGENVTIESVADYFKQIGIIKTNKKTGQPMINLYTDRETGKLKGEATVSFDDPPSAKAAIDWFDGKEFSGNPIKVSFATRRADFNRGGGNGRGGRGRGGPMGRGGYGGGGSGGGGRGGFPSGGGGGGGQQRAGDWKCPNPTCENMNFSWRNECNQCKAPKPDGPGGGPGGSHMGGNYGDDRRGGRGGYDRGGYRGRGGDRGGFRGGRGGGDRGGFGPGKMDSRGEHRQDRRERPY
Assay: fluorescence titration (Cy3-protein intensity)
Settings: apparent Kd, concentration as dNMP (nucleotides), not molecules, Hill fit n 3.32; concentrations are in nucleotide units. Poly(ADP-ribose); recombinant protein; residues 164-526; protein details: Cy3 label (sulfo-cyanine 3 NHS ester); single-stranded DNA

In the case of “GGGTTGGTTTGCGCATTCACAGTTCTCG [ssDNA (29 nt)]”, the Kd is reported as 1150 nM.
